Library screening results

Measurements from “University of Dundee, Small-Polar-MMV Screening Library” (2021), ChEMBL document CHEMBL3988442.

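Viability assay of Plasmodium falciparum sporozoites; the read-out is not stated. The concentration is filed as 10 mM, unlikely as a test dose, so the dose is not known. Direction is inferred from retests: higher values go with lower viability. Strong results were mostly tested again. About 34,000 compounds were tested under these conditions; 0.84% (about 280) showed 50% or more at least once.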

The filed quantity is “Percent Effect” (%).
The controls that fix the scale are not given in the record; negative values are as filed.
The compounds are a random part of those screened.
Two or more numbers in one place are separate tests of the same structure; such repeats can differ widely.

| structure | Percent Effect |
|---|---|
| `OCCN1CCC(c2csc(Nc3cnccn3)n2)CC1` | 12.11% |
| `CC(C(=O)NCc1ccnc(N2CCOCC2)c1)n1cccn1` (stereo not drawn) | 3.476% |
| `CNC(=O)c1ccc(CNCc2ccc(SC)c(OC)c2)cc1` | 3.552% |
| `CN1CCC(c2cccc(Cc3ccccc3)n2)CC1` | -0.8661% |
| `Cc1cc(NC(=O)CCN2CCCCC2Cn2cccn2)no1` (stereo not drawn) | 9.238% |
| `COc1ccccc1-c1cc(NC(=O)CCC2CCCO2)[nH]n1` (stereo not drawn) | -4.796% |
| `CC(C)(O)CCc1cccc(C(=O)NCC2COCCO2)c1` (stereo not drawn) | 0.1095% |
| `Cc1cc(CN2CCN(CC(O)C(C)(C)C)CC2)no1` (stereo not drawn) | 4.194% |
| `[H][C@@]12C[C@@H](c3nnc(C)[nH]3)O[C@]1([H])CN(S(=O)(=O)c1cccc(C)c1)C2` | 2.654% |
| `CCN(Cc1ccc(OC)c(F)c1)Cc1nc2c(cnn2C)c(=O)[nH]1` | 12.55% |
| `CSc1nccn1-c1cccc(C(=O)NCCCN2CCOCC2)c1` | 7.742% |
| `COCCN1CCC(CNC(=O)C2(c3cc(C)cc(C)c3)CC2)CC1` | 13.23% |
| `CS(=O)(=O)NC1(CCc2ccc(NC(=O)C3CC3)nc2)CCCCC1` | -4.923% |
| `Cn1nccc1CN1CCCC(COc2ccccc2F)C1` (stereo not drawn) | 4.246% |
| `Cc1ccc(-c2nc(CN3CCOC(Cn4cccn4)C3)co2)cc1` (stereo not drawn) | 2.69% |
| `O=C(Nc1ccc(F)c(Br)c1)N1CCCC1` | -17.36% |
| `O=C(Cn1cc(-c2ccccc2)cn1)N1CCNC1=O` | -4.297% |
| `CCn1ncc2c1CN(CCc1cccc(Cl)c1)CC2COC.O=C(O)C(F)(F)F.O=C(O)C(F)(F)F` (stereo not drawn) | -1.857% |
| `CCCc1noc(CN2CCCC2c2c(C)nn(C)c2OC)n1` (stereo not drawn) | -10.79% & -11.88% & -14.71% |
| `CCc1nccn1C1CCCN(C(=O)Cc2ccc(OC)c(F)c2)C1` (stereo not drawn) | -18.14% |
| `O=C(O)C(F)(F)F.O=C(O)C(F)(F)F.[H][C@@]12CN(CC3CC3)C[C@]1([H])[C@H](OC)CCN2S(=O)(=O)c1cccnc1` | 11.77% |
| `Cc1ccc(S(=O)(=O)N2CCCC3(CCCN3S(C)(=O)=O)C2)cc1F` (stereo not drawn) | 20.79% |
| `O=C(NCCCC(=O)N1CCN(CC2CC2)c2ccccc21)C1CC1` | 13.93% |
| `CC(=O)Nc1nc(C2CCN(C(=O)Cc3ccccc3)CC2)cs1` | 1.112% |
| `CNC(=O)C1Cc2ccccc2CN1CCC#N` (stereo not drawn) | -7.996% |
| `CS(=O)(=O)N1CCC(NC(=O)COc2cccc(Cl)c2)CC1` | -6.009% |
| `COCCC1CCN(CC(C)n2cnc3ccccc32)CC1` (stereo not drawn) | -31.56% & -20.94% |
| `CC(C)c1noc(C(C)N2CCN(Cc3cccs3)CC2)n1` (stereo not drawn) | -2.065% |
| `O=C(O)C(F)(F)F.[H][C@@]12CCN(c3ncccn3)C[C@@]1([H])[C@H](C(=O)NCc1ccco1)CCO2` | -22.71% |
| `COCC(c1cccc(C(F)(F)F)c1)N(C)C(=O)c1ccco1` (stereo not drawn) | -2.152% |
| `Cc1ccc2c(n1)N(Cc1cccnc1)CCN(C(=O)C1CC1)C2.O=C(O)C(F)(F)F.O=C(O)C(F)(F)F` | -17.24% |
| `Cc1noc(C)c1CN1CCN(Cc2nccn2C)CC1` | -8.578% |
| `O=C(CCOc1ccc(Cl)cc1)N1CCN(c2cnccn2)CC1` | 5.867% |
| `O=C(O)C(F)(F)F.O=C(O)C(F)(F)F.[H][C@@]12C[C@@H](Oc3cccc(F)c3)CN1CCN(C(=O)Cc1ccccn1)C2` | -1.371% |
| `CN1CC(c2ccccc2)CC12CCN(C(=O)c1ccncc1)CC2` (stereo not drawn) | -4.3% |
| `O=C(O)C(=O)O.c1cncc(CN2CCC(c3ccc4c(c3)OCO4)CC2)c1` | 10.64% |
| `CC(C)(C)n1ncc2c(=O)n(CC(=O)NCCc3ccccc3)cnc21` | -2.076% & -3.898% |
| `CC(C)(C)c1nc(CN2CCCC2CCc2ccccc2)no1` (stereo not drawn) | 24.2% |
| `Cl.O=C(Nc1cccc(CNCc2ccsc2)c1)C1CC1` | 18.68% |
| `CCN(Cc1ccccc1Cl)Cn1nc(C)c2c(C)onc2c1=O` | 3.793% |
| `O=C(O)[C@@H]1CCN(C(=O)c2ccccn2)[C@@H]1c1ccc(F)cc1` | -0.8951% |
| `[H][C@@]12CN(S(C)(=O)=O)C[C@]1(C(=O)NCC1CC1)CCCN2c1ncccn1` | 2.998% |
| `CN(C)CCN(C)c1ccc(-c2nc(COc3ccccc3)no2)cn1` | 0.8166% & -16.02% |
| `O=C(CCc1nccs1)N1CCN(c2cccnn2)CC1` | -21.73% |
| `N#Cc1ccnc(N2CCN(C(=O)Cc3ccc4c(c3)CCO4)CC2)c1` | 8.244% |
| `CC(=O)NC1CCN(c2c(C#N)cnc3c(C)cc(F)cc23)CC1` | -17.6% |
| `Cn1cc(-c2ccc(C3CCCCN3Cc3cccnc3)cn2)cn1` (stereo not drawn) | 16.51% |
| `Cc1noc(-c2ccnc(Oc3ccc(CN4CCCC4)cc3C)c2)n1` | -12.77% |
| `COc1ccc(CN2CCn3cc(CNC(=O)CC4CC4)nc3C2)cc1.O=C(O)C(F)(F)F` | 2.862% |
| `CCN1CC(C(=O)NCc2cccnc2-n2cccn2)CC1=O` (stereo not drawn) | -8.605% |
| `CCCn1[nH]cc/c1=N\C(=O)CN1CCc2c(nc(C3CC3)n2C)C1` | 17.86% |
| `O=C1CC(N(C(=O)c2ccc3c(c2)CCC3)C2CC2)C(=O)N1` (stereo not drawn) | 7.977% |
| `Cc1ncsc1C(=O)NC1CCN(CCCC#N)CC1` | 5.11% |
| `N#Cc1cccc(CN2C(=O)C3(CCNCC3)Nc3ccccc32)c1` | -11.26% & -16.83% & -15.66% |
| `[H][C@]12CC[C@]([H])(CN(C(C)=O)C1)N(C(=O)c1cccnc1SC)C2` | -2.895% |
| `COc1cccc(CN2CCC(c3nccn3C(C)C)CC2)c1` | -6.979% |
| `CCc1ccc(C(=O)N2CCC(c3nncn3CC)CC2)cc1` | 7.779% |
| `[H][C@@]12CN(C(=O)NC)C[C@]1(C(=O)NCC1CC1)CCCN2c1ncccn1` | -7.212% |
| `Cc1ccc(Nc2nccc(C3CCN(C(=O)CN)C3)n2)nc1.Cl` (stereo not drawn) | 81.99% & 45.72% & 74.53% |
| `COc1ccc(NC(=O)c2ccoc2C)c(N2CCN(C(C)=O)CC2)n1` | -0.1098% |
| `CC[C@H](C)Cn1nc(C2CCNCC2)n(Cc2ccccc2)c1=O` | -1.433% |
| `CC(C)(C)n1cc(C(=O)N2CCN(Cc3ccncc3)CC2)cn1` | -9.633% |
| `COCCOCC(=O)Nc1ccc(Br)cc1F` | -2.818% |

Some entries from above, unchanged:

| structure | Percent Effect |
|---|---|
| `Cc1ccc(Nc2nccc(C3CCN(C(=O)CN)C3)n2)nc1.Cl` (stereo not drawn) | 81.99% & 45.72% & 74.53% |
| `CS(=O)(=O)NC1(CCc2ccc(NC(=O)C3CC3)nc2)CCCCC1` | -4.923% |
| `[H][C@@]12CN(S(C)(=O)=O)C[C@]1(C(=O)NCC1CC1)CCCN2c1ncccn1` | 2.998% |
| `CC(C)(C)c1nc(CN2CCCC2CCc2ccccc2)no1` (stereo not drawn) | 24.2% |
| `Cl.O=C(Nc1cccc(CNCc2ccsc2)c1)C1CC1` | 18.68% |